Assay results from the supplement of paper PMC10849652.
This is one part of the list.

Protein sequences, listed by entry. Tags and fused reporters are not part of them. Lines headed by an entry give the natural chain unless they say otherwise; changes in a name come on top.
UniProt Q9Y2B9: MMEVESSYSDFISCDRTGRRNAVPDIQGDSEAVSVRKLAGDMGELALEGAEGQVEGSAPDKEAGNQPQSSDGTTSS
UniProt Q8N4B1: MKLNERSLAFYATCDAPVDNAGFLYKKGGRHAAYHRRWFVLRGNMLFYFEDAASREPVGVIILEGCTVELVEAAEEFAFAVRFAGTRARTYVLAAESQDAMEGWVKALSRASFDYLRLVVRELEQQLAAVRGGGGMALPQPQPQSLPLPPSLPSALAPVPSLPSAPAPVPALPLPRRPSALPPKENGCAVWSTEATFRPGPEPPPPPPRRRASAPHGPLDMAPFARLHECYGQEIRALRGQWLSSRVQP
UniProt P11309, whole entry, looked up: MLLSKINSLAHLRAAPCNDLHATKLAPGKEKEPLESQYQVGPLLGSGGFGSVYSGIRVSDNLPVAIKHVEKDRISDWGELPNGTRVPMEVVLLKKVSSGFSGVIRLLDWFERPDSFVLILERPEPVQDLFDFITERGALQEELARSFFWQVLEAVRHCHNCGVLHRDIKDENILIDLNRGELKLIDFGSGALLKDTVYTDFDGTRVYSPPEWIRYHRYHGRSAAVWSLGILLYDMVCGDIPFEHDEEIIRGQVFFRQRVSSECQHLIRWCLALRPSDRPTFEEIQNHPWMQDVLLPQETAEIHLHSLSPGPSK
UniProt Q8IUZ5: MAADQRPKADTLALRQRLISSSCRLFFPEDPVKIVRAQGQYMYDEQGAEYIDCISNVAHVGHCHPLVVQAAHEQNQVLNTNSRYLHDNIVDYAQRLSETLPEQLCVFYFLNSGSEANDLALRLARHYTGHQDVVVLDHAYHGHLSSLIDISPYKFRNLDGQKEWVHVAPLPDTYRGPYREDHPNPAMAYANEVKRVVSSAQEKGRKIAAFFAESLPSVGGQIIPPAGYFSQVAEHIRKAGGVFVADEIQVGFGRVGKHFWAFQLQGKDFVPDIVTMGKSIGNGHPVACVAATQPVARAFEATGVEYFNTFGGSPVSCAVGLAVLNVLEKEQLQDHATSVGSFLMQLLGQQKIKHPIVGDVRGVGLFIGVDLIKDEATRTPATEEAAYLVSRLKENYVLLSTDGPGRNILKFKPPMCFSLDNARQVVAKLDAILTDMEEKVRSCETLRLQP
UniProt P16885: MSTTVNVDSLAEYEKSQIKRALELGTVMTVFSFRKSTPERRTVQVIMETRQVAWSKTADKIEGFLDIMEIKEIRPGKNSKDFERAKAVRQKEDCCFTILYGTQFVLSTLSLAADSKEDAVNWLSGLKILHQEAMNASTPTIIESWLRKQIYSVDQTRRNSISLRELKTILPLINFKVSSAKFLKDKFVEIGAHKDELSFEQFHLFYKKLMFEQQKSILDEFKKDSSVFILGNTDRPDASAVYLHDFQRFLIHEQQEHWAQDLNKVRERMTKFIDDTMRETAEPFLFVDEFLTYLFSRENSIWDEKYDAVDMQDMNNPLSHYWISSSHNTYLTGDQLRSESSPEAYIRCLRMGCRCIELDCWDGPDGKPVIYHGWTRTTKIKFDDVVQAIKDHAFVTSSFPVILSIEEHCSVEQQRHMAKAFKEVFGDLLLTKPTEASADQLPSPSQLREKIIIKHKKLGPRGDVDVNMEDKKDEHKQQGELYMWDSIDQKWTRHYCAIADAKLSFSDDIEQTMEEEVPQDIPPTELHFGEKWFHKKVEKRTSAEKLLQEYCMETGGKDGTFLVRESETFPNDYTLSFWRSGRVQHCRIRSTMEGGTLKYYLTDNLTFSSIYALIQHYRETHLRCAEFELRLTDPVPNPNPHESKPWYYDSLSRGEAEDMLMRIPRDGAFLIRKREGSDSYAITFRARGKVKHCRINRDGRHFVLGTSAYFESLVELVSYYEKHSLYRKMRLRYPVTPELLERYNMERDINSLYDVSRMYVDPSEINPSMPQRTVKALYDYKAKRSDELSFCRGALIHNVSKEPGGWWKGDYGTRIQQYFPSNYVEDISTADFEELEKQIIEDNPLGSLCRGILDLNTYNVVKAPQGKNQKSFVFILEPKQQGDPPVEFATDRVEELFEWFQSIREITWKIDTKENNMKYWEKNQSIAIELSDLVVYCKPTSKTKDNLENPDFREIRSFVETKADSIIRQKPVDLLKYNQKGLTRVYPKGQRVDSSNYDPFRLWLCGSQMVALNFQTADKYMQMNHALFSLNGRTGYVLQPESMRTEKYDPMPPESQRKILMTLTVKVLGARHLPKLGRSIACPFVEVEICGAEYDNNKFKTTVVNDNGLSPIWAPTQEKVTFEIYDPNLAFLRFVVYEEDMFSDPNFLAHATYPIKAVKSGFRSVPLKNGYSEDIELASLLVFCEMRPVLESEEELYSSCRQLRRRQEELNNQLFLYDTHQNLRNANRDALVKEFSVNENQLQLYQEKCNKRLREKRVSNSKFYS
UniProt Q8TEQ8: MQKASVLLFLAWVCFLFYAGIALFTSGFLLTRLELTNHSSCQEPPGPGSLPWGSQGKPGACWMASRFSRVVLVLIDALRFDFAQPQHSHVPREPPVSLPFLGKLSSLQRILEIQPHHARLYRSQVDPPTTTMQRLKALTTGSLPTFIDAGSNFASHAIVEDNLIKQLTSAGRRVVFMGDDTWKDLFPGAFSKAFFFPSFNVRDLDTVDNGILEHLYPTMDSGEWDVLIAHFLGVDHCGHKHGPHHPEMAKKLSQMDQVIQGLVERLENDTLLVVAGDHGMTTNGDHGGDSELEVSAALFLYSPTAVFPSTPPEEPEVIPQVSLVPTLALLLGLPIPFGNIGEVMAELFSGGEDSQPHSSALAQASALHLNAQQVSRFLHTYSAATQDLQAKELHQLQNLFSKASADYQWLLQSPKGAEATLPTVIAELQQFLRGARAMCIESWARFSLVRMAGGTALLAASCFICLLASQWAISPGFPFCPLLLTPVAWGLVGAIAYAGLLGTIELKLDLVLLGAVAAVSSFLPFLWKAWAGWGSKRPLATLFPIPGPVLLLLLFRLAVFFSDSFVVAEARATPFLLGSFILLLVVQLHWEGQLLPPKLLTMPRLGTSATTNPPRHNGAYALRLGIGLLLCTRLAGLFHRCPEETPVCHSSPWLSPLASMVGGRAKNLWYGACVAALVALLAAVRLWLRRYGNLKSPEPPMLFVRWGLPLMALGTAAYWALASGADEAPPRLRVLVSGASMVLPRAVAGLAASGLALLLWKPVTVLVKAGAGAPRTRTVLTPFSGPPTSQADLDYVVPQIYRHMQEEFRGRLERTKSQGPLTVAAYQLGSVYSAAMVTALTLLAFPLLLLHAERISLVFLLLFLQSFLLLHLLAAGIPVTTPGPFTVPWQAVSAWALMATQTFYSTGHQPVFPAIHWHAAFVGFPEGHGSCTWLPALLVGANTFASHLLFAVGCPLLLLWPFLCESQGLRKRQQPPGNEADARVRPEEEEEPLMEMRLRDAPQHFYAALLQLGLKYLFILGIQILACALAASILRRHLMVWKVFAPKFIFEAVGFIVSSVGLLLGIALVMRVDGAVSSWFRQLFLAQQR
UniProt P55347: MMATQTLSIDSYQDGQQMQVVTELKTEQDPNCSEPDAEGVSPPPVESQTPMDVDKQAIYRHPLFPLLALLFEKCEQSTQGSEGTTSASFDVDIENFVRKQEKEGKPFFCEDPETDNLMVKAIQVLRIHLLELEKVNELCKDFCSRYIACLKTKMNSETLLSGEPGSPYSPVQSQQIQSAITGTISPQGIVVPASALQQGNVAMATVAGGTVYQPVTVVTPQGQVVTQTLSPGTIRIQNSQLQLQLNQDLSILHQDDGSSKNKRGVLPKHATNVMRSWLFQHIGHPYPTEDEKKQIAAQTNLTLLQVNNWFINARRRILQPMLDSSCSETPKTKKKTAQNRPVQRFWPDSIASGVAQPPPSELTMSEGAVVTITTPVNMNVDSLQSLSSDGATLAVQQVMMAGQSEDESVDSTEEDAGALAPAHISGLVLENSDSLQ
UniProt Q8N2A8: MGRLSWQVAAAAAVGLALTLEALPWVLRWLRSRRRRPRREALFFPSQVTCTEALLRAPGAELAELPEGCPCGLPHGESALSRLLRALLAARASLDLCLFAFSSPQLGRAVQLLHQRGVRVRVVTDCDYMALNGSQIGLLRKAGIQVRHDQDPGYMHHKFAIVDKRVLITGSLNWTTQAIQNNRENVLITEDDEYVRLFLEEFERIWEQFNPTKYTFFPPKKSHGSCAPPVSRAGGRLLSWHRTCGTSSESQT
UniProt P08567: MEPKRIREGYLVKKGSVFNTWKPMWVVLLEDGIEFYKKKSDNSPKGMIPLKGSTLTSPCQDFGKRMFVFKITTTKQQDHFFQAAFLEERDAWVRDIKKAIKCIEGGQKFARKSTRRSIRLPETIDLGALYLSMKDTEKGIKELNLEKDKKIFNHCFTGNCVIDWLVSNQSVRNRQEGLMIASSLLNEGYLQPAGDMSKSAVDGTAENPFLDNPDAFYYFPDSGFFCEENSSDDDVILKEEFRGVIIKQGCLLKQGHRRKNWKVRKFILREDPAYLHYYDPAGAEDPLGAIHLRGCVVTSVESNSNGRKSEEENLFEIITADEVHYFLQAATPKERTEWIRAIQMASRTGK
UniProt Q9HAU0: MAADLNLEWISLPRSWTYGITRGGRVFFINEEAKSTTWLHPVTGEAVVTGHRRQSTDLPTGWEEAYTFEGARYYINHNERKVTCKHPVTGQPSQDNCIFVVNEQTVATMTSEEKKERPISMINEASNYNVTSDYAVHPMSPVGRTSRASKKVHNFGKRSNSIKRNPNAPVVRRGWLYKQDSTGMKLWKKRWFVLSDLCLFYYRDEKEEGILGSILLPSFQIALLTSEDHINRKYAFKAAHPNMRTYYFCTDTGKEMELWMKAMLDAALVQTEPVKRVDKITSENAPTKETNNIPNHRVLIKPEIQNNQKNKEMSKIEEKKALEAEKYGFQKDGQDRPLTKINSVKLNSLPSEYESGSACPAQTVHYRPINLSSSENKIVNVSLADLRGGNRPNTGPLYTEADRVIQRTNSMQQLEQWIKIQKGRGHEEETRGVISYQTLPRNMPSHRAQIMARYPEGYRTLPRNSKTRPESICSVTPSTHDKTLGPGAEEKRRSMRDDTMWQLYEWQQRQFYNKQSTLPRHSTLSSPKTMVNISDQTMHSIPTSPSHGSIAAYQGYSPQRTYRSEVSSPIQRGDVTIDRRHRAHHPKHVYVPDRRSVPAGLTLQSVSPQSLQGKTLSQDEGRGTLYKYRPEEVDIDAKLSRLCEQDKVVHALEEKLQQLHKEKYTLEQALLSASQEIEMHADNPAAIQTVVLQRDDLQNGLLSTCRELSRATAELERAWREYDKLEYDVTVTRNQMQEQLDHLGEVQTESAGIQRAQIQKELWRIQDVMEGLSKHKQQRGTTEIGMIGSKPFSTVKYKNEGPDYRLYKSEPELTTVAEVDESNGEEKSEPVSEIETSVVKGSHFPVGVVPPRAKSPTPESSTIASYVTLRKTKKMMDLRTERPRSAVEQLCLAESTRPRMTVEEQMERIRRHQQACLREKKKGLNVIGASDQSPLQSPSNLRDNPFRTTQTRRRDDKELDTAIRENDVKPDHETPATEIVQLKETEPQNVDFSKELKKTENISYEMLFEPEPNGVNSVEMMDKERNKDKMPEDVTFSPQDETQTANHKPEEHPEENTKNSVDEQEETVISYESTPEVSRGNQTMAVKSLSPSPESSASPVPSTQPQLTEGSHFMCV
UniProt Q03405, whole entry, looked up: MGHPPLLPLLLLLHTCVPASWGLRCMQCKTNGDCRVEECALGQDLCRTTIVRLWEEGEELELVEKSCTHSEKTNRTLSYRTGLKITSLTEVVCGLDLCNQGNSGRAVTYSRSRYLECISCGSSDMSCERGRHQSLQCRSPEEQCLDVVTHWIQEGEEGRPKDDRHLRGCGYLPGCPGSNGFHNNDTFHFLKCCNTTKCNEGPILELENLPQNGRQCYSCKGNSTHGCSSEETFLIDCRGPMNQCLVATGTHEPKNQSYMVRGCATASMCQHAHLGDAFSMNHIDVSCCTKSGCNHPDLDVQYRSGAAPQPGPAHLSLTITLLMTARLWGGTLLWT
UniProt O60331: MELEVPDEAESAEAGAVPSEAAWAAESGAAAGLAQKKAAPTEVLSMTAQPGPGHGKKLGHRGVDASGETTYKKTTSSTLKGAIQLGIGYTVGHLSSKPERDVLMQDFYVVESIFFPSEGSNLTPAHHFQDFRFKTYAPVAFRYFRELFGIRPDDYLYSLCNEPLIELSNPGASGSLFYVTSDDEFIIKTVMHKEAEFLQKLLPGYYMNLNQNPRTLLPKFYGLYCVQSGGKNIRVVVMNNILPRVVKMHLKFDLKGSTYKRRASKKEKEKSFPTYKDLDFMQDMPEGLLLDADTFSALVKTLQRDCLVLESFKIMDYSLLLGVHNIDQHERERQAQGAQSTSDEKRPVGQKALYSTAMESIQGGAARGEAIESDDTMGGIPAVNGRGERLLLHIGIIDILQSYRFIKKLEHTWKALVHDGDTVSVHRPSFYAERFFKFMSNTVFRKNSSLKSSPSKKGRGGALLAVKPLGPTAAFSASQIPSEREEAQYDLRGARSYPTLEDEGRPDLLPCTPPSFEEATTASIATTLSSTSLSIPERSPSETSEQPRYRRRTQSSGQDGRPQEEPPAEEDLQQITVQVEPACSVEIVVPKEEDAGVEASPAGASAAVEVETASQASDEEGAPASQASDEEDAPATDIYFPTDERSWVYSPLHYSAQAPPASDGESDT

Experiments:
Assay in all cases: log2 fold change, soluble protein after heating vs DMSO (PISA); higher = thermal stabilisation; K562 cells, 10 uM, 30 min; active = over 0.2 and 3.5 SD of the protein, either way, in both replicates (recomputed)
[1] = compound: NC(=O)Nc1cc(-c2cccc(F)c2)sc1C(=O)N[C@H]1CCCNC1
Procedure, shortened: (§1)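 For each measurement, 10 μM compound was applied for 30 min to K562 cells at 2×10^6 cells/mL. Aliquots were heated for 3 min across 48°C-58°C, pooled, and extracted in PBS with 0.5% NP-40 at 4°C; the supernatant after 21,000xg for 90 min was soluble protein. This was quantified by TMTpro 16plex LC-MS/MS with channel sums equalised, and thermal stability was reported relative to control samples from duplicates, on a log2 fold-change scale.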

[2] = compound: NC1(c2ccc(-c3nc4ccn5c(=O)[nH]nc5c4cc3-c3ccccc3)cc2)CCC1
Procedure, shortened: as §1

entinostat = compound: Nc1ccccc1NC(=O)c1ccc(CNC(=O)OCc2cccnc2)cc1 [entinostat]
Procedure, shortened: as §1

silmitasertib = compound: O=C(O)c1ccc2c(c1)nc(Nc1cccc(Cl)c1)c1ccncc12 [silmitasertib]
Procedure, shortened: as §1

[3] = compound: O=C1NC(=O)C(c2cnc3ccccn23)=C1c1cn2c3c(cc(F)cc13)CN(C(=O)N1CCCCC1)CC2
Procedure, shortened: as §1

[4] = compound: NC(=O)c1cnc(N[C@@H]2CCCC[C@@H]2N)nc1Nc1cccc(-n2nccn2)c1
Procedure, shortened: as §1

[5] = compound: NCC(=O)Nc1ccc(-n2nc(C(F)(F)F)cc2-c2ccc3c(ccc4ccccc43)c2)cc1
Procedure, shortened: as §1

citarinostat = compound: O=C(CCCCCCNC(=O)c1cnc(N(c2ccccc2)c2ccccc2Cl)nc1)NO [citarinostat]
Procedure, shortened: as §1

[6] = compound: c1cc(OCCN2CCCCC2)cc(-c2n[nH]c3ccc(-c4nnc[nH]4)cc23)c1
Procedure, shortened: as §1

vorinostat = compound: O=C(CCCCCCC(=O)Nc1ccccc1)NO [vorinostat]
Procedure, shortened: as §1

Measured: log2 fold change

PIK3C2A (UniProt O00443)
inactive: [1] -0.005 | [2] -0.04 | entinostat 0.071 | silmitasertib 0.02 | [3] 0.5

PKHD1 (UniProt P08F94)
inactive: [4] -0.29 | [5] -0.113 | citarinostat 0.084 | [6] -0.013

PKIG (UniProt Q9Y2B9)
inactive: [2] 0.377 | silmitasertib 0.106

PGD (UniProt K7EM49)
inactive: [5] -0.061 | vorinostat -0.301 | [3] -0.203

PHETA1 isoform 4 (UniProt Q8N4B1)
inactive: [4] -0.116 | vorinostat 0.014

PKP4 (UniProt Q99569)
inactive: citarinostat 0.023 | [3] 0.14 | [6] 0.012

PIMREG (UniProt Q9BSJ6)
inactive: vorinostat -0.205 | citarinostat -0.061 | [6] -0.217

PIGX isoform 2 (UniProt Q8TBF5)
inactive: [1] 0.06 | [2] 0.1 | [5] 0.045 | entinostat 0.127 | vorinostat -0.05 | citarinostat 0.009 | silmitasertib 0.051 | [3] 0.092 | [6] 0.052

PKN3 (UniProt Q6P5Z2)
inactive: [1] 0.009 | entinostat -0.135

PKIB isoform 2 (UniProt Q9C010)
inactive: [2] 0.083 | vorinostat -0.034 | citarinostat -0.028 | silmitasertib 0.003 | [6] -0.248

PHLDB1 isoform 2 (UniProt Q86UU1)
inactive: [4] 0.112 | [2] -0.057 | [5] -0.186 | vorinostat 0.229 | citarinostat -0.014 | silmitasertib 0.045 | [3] -0.178 | [6] -0.117

PHC3 isoform 7 (UniProt Q8NDX5)
inactive: [1] 0.158 | [2] -0.125 | entinostat 0.1 | citarinostat 0.172 | silmitasertib -0.018 | [6] -0.014
active: [3] 0.567

PKMYT1 (UniProt Q99640)
inactive: [1] 0 | entinostat 0.049 | citarinostat -0.098 | [3] 0.183 | [6] 0.003

PIM1 isoform 2 (UniProt P11309)
inactive: [2] 0.388 | vorinostat -0.123 | silmitasertib 0.575

PIGM (UniProt Q9H3S5)
inactive: [1] 0.061 | [5] -0.031 | entinostat 0 | citarinostat 0 | [6] -0.057

PHF14 (UniProt O94880)
inactive: [1] 0 | [2] 0.158 | [5] 0.127 | entinostat -0.127 | vorinostat -0.145 | silmitasertib 0.211

PHYKPL (UniProt Q8IUZ5)
inactive: [1] -0.02 | [2] 0.018 | entinostat -0.032 | vorinostat 0.045 | silmitasertib -0.011 | [3] -0.012

PLCG2 (UniProt P16885)
inactive: [4] -0.274 | citarinostat -0.163 | [6] -0.021

PIAS4 (UniProt Q8N2W9)
inactive: [2] 0.094 | vorinostat -0.014 | silmitasertib -0.271 | [3] -0.404

PIGO (UniProt Q8TEQ8)
inactive: [2] -0.076 | [5] -0.075 | silmitasertib -0.15 | [3] -0.108

PHLPP1 (UniProt O60346)
inactive: [3] -0.011

PEX26 (UniProt Q7Z412)
inactive: [4] -0.061 | [2] -0.148 | [5] -0.045 | vorinostat 0.026 | silmitasertib 0.069 | [3] -0.279

PHC2 isoform 5 (UniProt Q8IXK0)
inactive: [1] 0.084 | [2] -0.262 | [5] -0.02 | entinostat -0.071 | citarinostat -0.039 | silmitasertib -0.138 | [3] 0.162 | [6] -0.262

PHOSPHO2 (UniProt Q8TCD6)
inactive: [4] -0.06 | [2] -0.06 | [5] 0.04 | silmitasertib 0.009

PKNOX1 (UniProt P55347)
inactive: [4] 0.093

PIGH (UniProt Q14442)
inactive: [4] -0.021 | [2] -0.087 | [5] -0.021 | vorinostat 0.18 | citarinostat 0.031 | silmitasertib 0.093 | [3] -0.128 | [6] -0.05

PICK1 (UniProt Q9NRD5)
inactive: [1] -0.33 | [2] -0.217 | entinostat -0.155 | silmitasertib 0.143 | [3] 0.049

PIGL (UniProt Q9Y2B2)
inactive: [4] 0.064 | [2] 0.057 | [5] 0.03 | vorinostat -0.027 | citarinostat -0.011 | silmitasertib 0.187 | [3] 0.074 | [6] -0.037

PKLR (UniProt F8W6W2)
inactive: [4] -0.407 | [5] -0.475

PIGB (UniProt Q92521)
inactive: [1] 0.117 | [2] -0.188 | entinostat -0.135 | vorinostat 0.009 | citarinostat 0 | silmitasertib -0.086 | [3] -0.016 | [6] -0.056

PI4KB isoform 2 (UniProt Q9UBF8)
inactive: vorinostat -0.023 | citarinostat -0.056 | [6] 0.046

PHRF1 (UniProt Q9P1Y6)
inactive: [2] 0.148 | silmitasertib 0.176

PFKM (UniProt F8VTQ3)
inactive: vorinostat 0.017

PLD6 (UniProt Q8N2A8)
inactive: [1] 0.085 | [5] -0.145 | entinostat 0 | [3] 0.086

PIBF1 (UniProt Q8WXW3)
inactive: [2] 0.389 | silmitasertib 0.033

PLEK (UniProt P08567)
inactive: [5] 0.073

PLEKHA5 isoform 6 (UniProt Q9HAU0)
inactive: [4] -0.03 | [2] 0.146 | [5] 0.094 | vorinostat -0.038 | citarinostat 0.29 | silmitasertib 0.139 | [3] -0.006 | [6] -0.501

PFKFB1 (UniProt P16118)
inactive: [1] -0.338 | [2] -0.019 | entinostat 0.2 | vorinostat -0.113 | silmitasertib 0.089 | [3] -0.051

PLAUR (UniProt Q03405)
inactive: [4] 0.172

PIP5K1C isoform 3 (UniProt O60331)
inactive: [1] -0.01 | entinostat 0.028 | vorinostat 0.225 | [3] 0.087
